According to article PMC8224940:
No constants are given. Whether binding was seen depends on the method and setting. In cells and extracts the contact can be indirect. Some entries that bind do so weakly or less than the wild type. Where a sequence is shown, tags or fusion partners need not be part of it.

By UniProt entry, the sequences of proteins in these tests, tags left out. Where a name states a change or a piece, a line headed by the entry shows the natural chain unless it says otherwise.
UniProt Q9BVS4: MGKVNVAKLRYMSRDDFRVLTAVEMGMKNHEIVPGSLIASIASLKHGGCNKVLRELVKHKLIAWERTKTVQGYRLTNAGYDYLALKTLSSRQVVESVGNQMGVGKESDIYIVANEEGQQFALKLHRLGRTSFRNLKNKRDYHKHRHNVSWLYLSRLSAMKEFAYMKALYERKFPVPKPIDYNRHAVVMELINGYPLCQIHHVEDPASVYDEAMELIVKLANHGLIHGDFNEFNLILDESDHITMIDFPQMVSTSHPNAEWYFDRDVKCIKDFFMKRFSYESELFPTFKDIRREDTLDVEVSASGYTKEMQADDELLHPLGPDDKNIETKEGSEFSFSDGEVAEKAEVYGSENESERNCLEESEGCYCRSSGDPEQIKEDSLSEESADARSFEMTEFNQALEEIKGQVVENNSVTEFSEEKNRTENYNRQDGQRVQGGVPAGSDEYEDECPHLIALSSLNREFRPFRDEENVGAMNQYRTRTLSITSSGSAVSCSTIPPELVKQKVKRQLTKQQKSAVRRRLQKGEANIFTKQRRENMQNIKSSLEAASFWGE

Target: T1, HA-tagged NOB1 (UniProt Q9ULX3)
T1 sequence: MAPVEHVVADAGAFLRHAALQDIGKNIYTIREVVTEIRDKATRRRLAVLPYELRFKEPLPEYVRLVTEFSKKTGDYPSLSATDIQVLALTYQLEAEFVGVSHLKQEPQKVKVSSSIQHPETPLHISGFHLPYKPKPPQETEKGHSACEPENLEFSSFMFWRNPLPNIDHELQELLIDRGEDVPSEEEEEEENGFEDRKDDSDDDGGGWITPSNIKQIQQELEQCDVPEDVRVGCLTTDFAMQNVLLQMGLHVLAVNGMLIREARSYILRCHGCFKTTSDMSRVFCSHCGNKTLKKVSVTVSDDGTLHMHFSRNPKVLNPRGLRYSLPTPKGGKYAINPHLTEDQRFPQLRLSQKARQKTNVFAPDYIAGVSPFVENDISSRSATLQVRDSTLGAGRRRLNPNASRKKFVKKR
Assay: co-IP; HA-NOB1 immunoprecipitated from HEK293 cells co-transfected with Flag-RIOK2 (WT, S483A or S483D) (buffer A with 0.1 M KCl); co-purified proteins of pre-40S particles detected by Western blot

binding | Substance
binds | Flag-tagged RIOK2^WT (from UniProt Q9BVS4 1-552)
binds | Flag-tagged RIOK2^S483A (from UniProt Q9BVS4 1-552)
